{"source": "paper PMC10334757", "target": "HIV-1 Gag (HIV-1 (strain RF))", "assay": "co-IP; HIVRF-infected H9 cells lysed at timepoints 0 to 48 h; Gag immunoprecipitated, SDS-PAGE, immunoblot with an antibody against nSMase2", "note": "Results are given in words; binding and its absence hold for the method and conditions named. Binding seen in cells or lysates may run through a third protein. Binding can be weak; no strength is given."}
{"binder": "neutral sphingomyelinase 2 (nSMase2) (enzyme, UniProt Q9NY59 1-655) MVLYTTPFPNSCLSALHCVSWALIFPCYWLVDRLAASFIPTTYEKRQRADDPCCLQLLCTALFTPIYLALLVASLPFAFLGFLFWSPLQSARRPYIYSRLEDKGLAGGAALLSEWKGTGPGKSFCFATANVCLLPDSLARVNNLFNTQARAKEIGQRIRNGAARPQIKIYIDSPTNTSISAASFSSLVSPQGGDGVARAVPGSIKRTASVEYKGDGGRHPGDEAANGPASGDPVDSSSPEDACIVRIGGEEGGRPPEADDPVPGGQARNGAGGGPRGQTPNHNQQDGDSGSLGSPSASRESLVKGRAGPDTSASGEPGANSKLLYKASVVKKAAARRRRHPDEAFDHEVSAFFPANLDFLCLQEVFDKRAATKLKEQLHGYFEYILYDVGVYGCQGCCSFKCLNSGLLFASRYPIMDVAYHCYPNKCNDDALASKGALFLKVQVGSTPQDQRIVGYIACTHLHAPQEDSAIRCGQLDLLQDWLADFRKSTSSSSAANPEELVAFDVVCGDFNFDNCSSDDKLEQQHSLFTHYRDPCRLGPGEEKPWAIGTLLDTNGLYDEDVCTPDNLQKVLESEEGRREYLAFPTSKSSGQKGRKELLKGNGRRIDYMLHAEEGLCPDWKAEVEEFSFITQLSGLTDHLPVAMRLMVSSGEEEA", "values": [{"measurement": "binding", "result": "binds"}]}
